Experimental data: PubChem BioAssay AID493246 (Drosophila RNAi Screening Center, 2011)
Test: 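Genome-wide search for dsRNAs that reduce cell number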 (primary screen). System: Drosophila Kc and S2R+ cells. Knock-down reagent: long dsRNA against Drosophila genes. Detection: 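Cell number per well after knock-down, printed as raw plate values; calls were based on per-plate z-scores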. Reading the numbers: Kc cell number and S2R+ cell number: higher = more cells remaining. Active means: 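Active when the per-plate z-score of cell number is 3 or more in the direction of fewer cells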.
The deposit covers about 21,000 reagents; this is a random part of those with a known target gene and a result. Of all reagents, 429 (2%) are marked active. 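Values are raw and not normalised between plates; calls rest on per-plate z-scores that were not deposited.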 The record does not give: the amount of reagent, the time to read-out.

gene	DRSC id	Kc cell number, rep 1	Kc cell number, rep 2	S2R+ cell number, rep 1	S2R+ cell number, rep 2	activity call
CG42566	DRSC03949	5.72e5		8.49e5		inactive
CG15721	DRSC19688	1.75e6	1.63e6	1.06e6	1.19e6	inactive
CG2218	DRSC15428	5.48e5		8.86e5		inactive
Sry-alpha	DRSC16867	1.45e6	1.42e6	1.05e6	1.23e6	inactive
CG1946	DRSC06804	1.65e6	1.73e6	1.34e6	1.57e6	inactive
CG6421	DRSC07420	1.60e6	1.60e6	1.24e6	1.43e6	inactive
CG9400	DRSC20182	5.38e5		8.47e5		inactive
Ser	DRSC16856	1.47e6	1.48e6	1.04e6	1.10e6	inactive
Nil	DRSC15953	1.86e6	1.81e6	1.06e6	1.15e6	inactive
Grl65a	DRSC08837	1.38e6	1.46e6	1.12e6	1.28e6	inactive
slx1	DRSC12290	1.52e6	1.53e6	1.39e6	1.48e6	inactive
CG17562	DRSC15243	1.47e6	1.52e6	1.09e6	1.30e6	inactive
Sfp38D	DRSC01810	5.65e5		8.79e5		inactive
CG10431	DRSC02055	1.53e6	1.61e6	1.27e6	2.82e5	inactive
comm	DRSC11336	1.41e6	1.78e6	1.42e6	1.54e6	inactive
Dic3	DRSC06058	1.60e6	1.68e6	1.20e6	1.35e6	inactive
CG15262	DRSC01975	1.65e6	1.68e6	1.34e6	1.43e6	inactive
Gcat	DRSC09719	1.62e6	1.55e6	1.39e6	1.49e6	inactive
CG13138	DRSC02235	1.39e6	1.47e6	1.17e6	1.33e6	inactive
CG42264	DRSC18074	1.39e6	1.52e6	1.06e6	1.18e6	inactive
CG42264	DRSC18075	1.57e6	1.58e6	1.06e6	1.19e6	inactive
CG6138	DRSC02933	1.74e6	1.89e6	1.43e6	1.55e6	inactive
CG9541	DRSC03257	1.56e6	1.61e6	1.26e6	1.36e6	inactive
bnl	DRSC13377	1.45e6	1.39e6	1.08e6	1.12e6	inactive
bnl	DRSC16913	1.41e6	1.50e6	6.39e5	7.42e5	active
ZnT33D	DRSC02591	1.46e6	1.54e6	1.22e6	1.35e6	inactive
CG43902	DRSC17999	1.62e6	1.58e6	9.03e5	1.06e6	inactive
crok	DRSC02593	1.60e6	1.65e6	1.32e6	1.43e6	inactive
mgl	DRSC17800	1.51e6	1.45e6	1.02e6	1.12e6	inactive
mgl	DRSC17823	5.86e5		8.49e5		inactive
mgl	DRSC17859	1.55e6	1.55e6	9.96e5	1.13e6	inactive
mgl	DRSC18004	1.49e6	1.49e6	1.00e6	1.08e6	inactive
CG32369	DRSC10042	1.46e6	1.35e6	1.18e6	1.16e6	inactive
CG32369	DRSC10834	1.45e6	1.52e6	1.35e6	1.26e6	inactive
S-Lap7	DRSC06374	1.57e6	1.52e6	1.13e6	1.29e6	inactive
Boh2	DRSC02777	1.57e6	1.63e6	1.26e6	1.44e6	inactive
CG15471	DRSC18054	1.71e6	1.71e6	1.08e6	1.18e6	inactive
CG5273	DRSC18612	1.51e6	1.47e6	1.02e6	1.10e6	inactive
CG31517	DRSC13010	1.67e6	2.14e6	1.13e6	1.31e6	inactive
CG31802	DRSC02459	1.69e6	1.65e6	1.24e6	1.50e6	inactive
myo	DRSC17174	4.73e5		8.39e5		inactive
dve	DRSC04680	1.61e6	1.76e6	1.36e6	5.41e5	inactive
NP15.6	DRSC16756	1.39e6	1.39e6	1.01e6	1.08e6	inactive
eya	DRSC03510	1.27e6	1.42e6	5.57e5	4.73e5	inactive
Lrp4	DRSC20118	5.60e5		9.18e5		inactive
CG14369	DRSC14831	1.24e6	1.33e6	1.14e6	1.32e6	inactive
CG15140	DRSC02440	1.56e6	1.67e6	1.21e6	1.34e6	inactive
cold	DRSC00538	1.34e6	1.44e6	1.06e6	1.18e6	inactive
CG33290	DRSC11493	1.29e6	1.64e6	1.15e6	1.42e6	inactive
GstO1	DRSC10688	1.54e6	1.71e6	1.29e6	1.31e6	inactive
CG12499	DRSC14521	1.49e6	1.53e6	8.00e5	8.76e5	inactive
Gr59c	DRSC04185	1.64e6	1.67e6	1.33e6	1.60e6	inactive
Pig1	DRSC18698	1.70e6	1.72e6	9.08e5	9.89e5	inactive
CG12448	DRSC01967	1.47e6	1.58e6	1.27e6	1.41e6	inactive
pelo	DRSC03588	1.32e6	1.37e6	1.31e6	1.27e6	inactive
CG15800	DRSC04271	1.49e6	1.55e6	1.36e6	1.48e6	inactive
Gli	DRSC03332	1.60e6	1.64e6	1.34e6	1.46e6	inactive
Sf3b1	DRSC00535	1.02e6	1.04e6	4.86e5	6.22e5	active
rin	DRSC17045	1.70e6	1.76e6	8.26e5	9.16e5	inactive

Look-ups from the entries so far:
mgl [DRSC17823], S2R+ cell number, rep 1 → 8.49e5
comm [DRSC11336], S2R+ cell number, rep 1 → 1.42e6
CG32369 [DRSC10834], Kc cell number, rep 1 = 1.45e6
Under “activity call”, CG15471 [DRSC18054] reads inactive
CG42264 [DRSC18075], S2R+ cell number, rep 1: 1.06e6
For “S2R+ cell number, rep 1”, S-Lap7 [DRSC06374] has 1.13e6
